Laboratory results: PubChem BioAssay AID743121 (NCATS, 2013)
Assay: 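Knock-downs that sensitise breast cancer cells to camptothecin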 (primary screen). System: MDA-MB-231 cells, a human breast cancer line. Reagent: single siRNA against human genes, 20 nM siRNA (0.8 pmol per well). Timing: 120 h (drug added 48 h after transfection, read 72 h later). Treatment: camptothecin 20 nM (about EC30) for 72 h; vehicle 0.1% DMSO in parallel plates. Read-out: 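Cell viability by ATP luminescence (CellTiter-Glo) as % of non-targeting siRNA wells, and the log2 ratio of viability without drug over viability with camptothecin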. Direction: log2 vehicle/camptothecin viability: higher = stronger sensitisation to camptothecin; viability with camptothecin: higher = more viable cells. Units: viability with camptothecin in % of control. Rule for the call: 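Each gene scored by redundant siRNA activity (RSA) over its individual siRNA ratios; a gene is called active at p < 0.001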.
Shown is an unselected part of about 26,000 reagents. 167 of them (0.63%) count as active. 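Calls are per gene from RSA p-values that are not deposited; an individual active-marked siRNA can sensitise only weakly.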 Entries without a mark were called inactive. The numbers tell different reagents against one gene apart. Not all columns of the deposit are shown.

Which result is listed for PPARD #1?
log2 vehicle/camptothecin viability: -0.475; viability with camptothecin: 84.7

With PPARD #2, what was measured?
log2 vehicle/camptothecin viability: -0.186; viability with camptothecin: 61.7

For PPARD #3, what was measured?
log2 vehicle/camptothecin viability: -0.486; viability with camptothecin: 68.9

With CEP41 #1, how do the results read?
log2 vehicle/camptothecin viability: -0.425; viability with camptothecin: 74

For CEP41 #2, what was measured?
log2 vehicle/camptothecin viability: -0.169; viability with camptothecin: 85.2

For CEP41 #3, what does the deposit list?
log2 vehicle/camptothecin viability: -0.19; viability with camptothecin: 98.1

What is on record for CEP41 #4?
log2 vehicle/camptothecin viability: 0.0331; viability with camptothecin: 86.2

For PGLYRP4 #1, how do the results read?
log2 vehicle/camptothecin viability: -0.216; viability with camptothecin: 40.2

What is on record for PGLYRP4 #2?
log2 vehicle/camptothecin viability: 0.242; viability with camptothecin: 19.1

For PGLYRP4 #3, what was measured?
log2 vehicle/camptothecin viability: -0.231; viability with camptothecin: 118

What did the screen give for PGLYRP4 #4?
log2 vehicle/camptothecin viability: 1.15; viability with camptothecin: 9.49

For CLCN2 #1, how do the results read?
log2 vehicle/camptothecin viability: -0.154; viability with camptothecin: 74.6

For CLCN2 #2, what was measured?
log2 vehicle/camptothecin viability: -0.0654; viability with camptothecin: 59

How did the screen score CLCN2 #3?
log2 vehicle/camptothecin viability: -0.38; viability with camptothecin: 37.4

For CLCN2 #4, how do the results read?
log2 vehicle/camptothecin viability: 0.0291; viability with camptothecin: 94.3
